Results reported in article PMC6465732.

B1: tGFP-PTK7 (wildtype), protein tyrosine kinase 7 (receptor, UniProt Q13308 31-1070)
chain: AIVFIKQPSSQDALQGRRALLRCEVEAPGPVHVYWLLDGAPVQDTERRFAQGSSLSFAAVDRLQDSGTFQCVARDDVTGEEARSANASFNIKWIEAGPVVLKHPASEAEIQPQTQVTLRCHIDGHPRPTYQWFRDGTPLSDGQSNHTVSSKERNLTLRPAGPEHSGLYSCCAHSAFGQACSSQNFTLSIADESFARVVLAPQDVVVARYEEAMFHCQFSAQPPPSLQWLFEDETPITNRSRPPHLRRATVFANGSLLLTQVRPRNAGIYRCIGQGQRGPPIILEATLHLAEIEDMPLFEPRVFTAGSEERVTCLPPKGLPEPSVWWEHAGVRLPTHGRVYQKGHELVLANIAESDAGVYTCHAANLAGQRRQDVNITVATVPSWLKKPQDSQLEEGKPGYLDCLTQATPKPTVVWYRNQMLISEDSRFEVFKNGTLRINSVEVYDGTWYRCMSSTPAGSIEAQARVQVLEKLKFTPPPQPQQCMEFDKEATVPCSATGREKPTIKWERADGSSLPEWVTDNAGTLHFARVTRDDAGNYTCIASNGPQGQIRAHVQLTVAVFITFKVEPERTTVYQGHTALLQCEAQGDPKPLIQWKGKDRILDPTKLGPRMHIFQNGSLVIHDVAPEDSGRYTCIAGNSCNIKHTEAPLYVVDKPVPEESEGPGSPPPYKMIQTIGLSVGAAVAYIIAVLGLMFYCKKRCKAKRLQKQPEGEEPEMECLNGGPLQNGQPSAEIQEEVALTSLGSGPAATNKRHSTSDKMHFPRSSLQPITTLGKSEFGEVFLAKAQGLEEGVAETLVLVKSLQSKDEQQQLDFRRELEMFGKLNHANVVRLLGLCREAEPHYMVLEYVDLGDLKQFLRISKSKDEKLKSQPLSTKQKVALCTQVALGMEHLSNNRFVHKDLAARNCLVSAQRQVKVSALGLSKDVYNSEYYHFRQAWVPLRWMSPEAILEGDFSTKSDVWAFGVLMWEVFTHGEMPHGGQADDEVLADLQAGKARLPQPEGCPSKLYRLMQRCWALSPKDRPSFSEIASALGDSTVDSKP
B2: tGFP-PTK7 p.Arg630Ser (receptor, UniProt Q13308-1 31-1070)
chain: B1 chain with R600S
B3: tGFP-PTK7 p.Thr186Met (receptor, UniProt Q13308-1 31-1070)
chain: B1 chain with T156M
B4: tGFP-PTK7 p.Arg294His (receptor, UniProt Q13308-1 31-1070)
chain: B1 chain with R264H
B5: tGFP-PTK7 p.Arg271Cys (receptor, UniProt Q13308-1 31-1070)
chain: B1 chain with R241C
B6: tGFP-PTK7 p.Ala856Thr (receptor, UniProt Q13308-1 31-1070)
chain: B1 chain with A826T
B7: tGFP-PTK7 p.Tyr725Phe (receptor, UniProt Q13308-1 31-1070)
chain: B1 chain with Y695F

biological target: HA-Vangl2; experiment: co-IP; HEK293T cells co-transfected with tGFP-PTK7 (WT or variants) and HA-Dvl2 or HA-Vangl2; lysed in RIPA buffer 48 hr after transfection; anti-HA antibody with protein G beads overnight at 4°C; three washes with RIPA buffer; immunoblot with anti-tGFP or anti-HA

binding, binds:
B1

biological target: HA-Dvl2 (Dishevelled 2); experiment: as above

binding, binds:
B1
B2
B3
B4
B5
B6
B7

Residue numbers refer to the chain shown, from its start. Results are given in words; binding and its absence hold for the method and conditions named. Binding seen in cells or lysates may run through a third protein. A result given as binding can be weak or reduced; the word gives no strength. Tags and fused reporters may be left off the sequences shown.
